Experimental data reported in US20220220185A1 (CELL NETWORKS, published 2022).
Results are given in words; binding and its absence hold for the method and conditions named. A result given as binding can be weak or reduced; the word gives no strength.

Sequences of proteins named here, by UniProt entry; tags and fusion partners are left off. A change or cut given only in a name is not applied to a line headed by its entry.
UniProt Q00722: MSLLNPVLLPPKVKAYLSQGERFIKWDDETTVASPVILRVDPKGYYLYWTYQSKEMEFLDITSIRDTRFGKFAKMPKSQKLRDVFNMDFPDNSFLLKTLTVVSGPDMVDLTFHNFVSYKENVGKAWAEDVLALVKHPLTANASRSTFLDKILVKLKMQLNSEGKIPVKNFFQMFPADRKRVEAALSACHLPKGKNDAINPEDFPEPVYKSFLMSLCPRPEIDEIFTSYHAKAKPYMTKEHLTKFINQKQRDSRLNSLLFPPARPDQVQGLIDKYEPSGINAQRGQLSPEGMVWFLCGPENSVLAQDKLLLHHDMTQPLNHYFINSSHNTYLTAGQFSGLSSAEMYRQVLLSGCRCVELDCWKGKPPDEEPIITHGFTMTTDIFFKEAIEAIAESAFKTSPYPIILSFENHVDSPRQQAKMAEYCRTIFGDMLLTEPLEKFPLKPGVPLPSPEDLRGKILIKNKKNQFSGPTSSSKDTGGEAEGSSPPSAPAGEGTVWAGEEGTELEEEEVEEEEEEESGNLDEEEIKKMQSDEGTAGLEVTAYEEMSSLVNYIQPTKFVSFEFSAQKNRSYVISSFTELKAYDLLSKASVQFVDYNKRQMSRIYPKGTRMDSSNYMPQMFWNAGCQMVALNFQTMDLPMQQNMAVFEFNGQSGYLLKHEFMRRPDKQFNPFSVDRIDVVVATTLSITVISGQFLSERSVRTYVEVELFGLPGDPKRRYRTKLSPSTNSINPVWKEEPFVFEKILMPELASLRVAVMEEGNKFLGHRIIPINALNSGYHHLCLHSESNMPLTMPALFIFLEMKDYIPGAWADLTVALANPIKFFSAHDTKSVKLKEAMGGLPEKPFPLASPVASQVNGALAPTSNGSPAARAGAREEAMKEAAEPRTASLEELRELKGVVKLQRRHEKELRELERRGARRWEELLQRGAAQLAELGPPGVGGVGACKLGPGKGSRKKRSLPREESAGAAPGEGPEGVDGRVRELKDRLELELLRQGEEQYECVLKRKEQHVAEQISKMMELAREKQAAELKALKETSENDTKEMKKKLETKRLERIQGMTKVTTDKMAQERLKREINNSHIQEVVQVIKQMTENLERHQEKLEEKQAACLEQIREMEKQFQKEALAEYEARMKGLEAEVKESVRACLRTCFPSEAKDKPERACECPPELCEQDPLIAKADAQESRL
UniProt P29992: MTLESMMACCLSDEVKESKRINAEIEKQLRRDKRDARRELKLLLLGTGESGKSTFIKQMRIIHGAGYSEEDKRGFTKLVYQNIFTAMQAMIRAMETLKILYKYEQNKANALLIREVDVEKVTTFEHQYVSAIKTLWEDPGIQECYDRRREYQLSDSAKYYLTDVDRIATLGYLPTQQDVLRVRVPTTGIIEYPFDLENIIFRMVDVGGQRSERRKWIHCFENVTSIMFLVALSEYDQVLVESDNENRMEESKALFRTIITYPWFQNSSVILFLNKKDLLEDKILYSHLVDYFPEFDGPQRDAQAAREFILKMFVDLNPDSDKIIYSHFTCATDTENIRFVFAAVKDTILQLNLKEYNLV

Target: Sm-PLCβ2 (UniProt Q00722)
Assay: NanoBiT-Gq/PLC interaction assay in cells, after GPCR ligand stimulation

In the case of “Gα11-Lg (LgBiT insertion at the αB-αC linker) (from UniProt P29992 1-359)”, the binding is reported as “binds”.
